We go through three molecules from article PMC3762726.

The target of this assay is T1, TAP-tagged KSRP (K homology splicing regulatory protein) (UniProt Q92945).
T1 sequence: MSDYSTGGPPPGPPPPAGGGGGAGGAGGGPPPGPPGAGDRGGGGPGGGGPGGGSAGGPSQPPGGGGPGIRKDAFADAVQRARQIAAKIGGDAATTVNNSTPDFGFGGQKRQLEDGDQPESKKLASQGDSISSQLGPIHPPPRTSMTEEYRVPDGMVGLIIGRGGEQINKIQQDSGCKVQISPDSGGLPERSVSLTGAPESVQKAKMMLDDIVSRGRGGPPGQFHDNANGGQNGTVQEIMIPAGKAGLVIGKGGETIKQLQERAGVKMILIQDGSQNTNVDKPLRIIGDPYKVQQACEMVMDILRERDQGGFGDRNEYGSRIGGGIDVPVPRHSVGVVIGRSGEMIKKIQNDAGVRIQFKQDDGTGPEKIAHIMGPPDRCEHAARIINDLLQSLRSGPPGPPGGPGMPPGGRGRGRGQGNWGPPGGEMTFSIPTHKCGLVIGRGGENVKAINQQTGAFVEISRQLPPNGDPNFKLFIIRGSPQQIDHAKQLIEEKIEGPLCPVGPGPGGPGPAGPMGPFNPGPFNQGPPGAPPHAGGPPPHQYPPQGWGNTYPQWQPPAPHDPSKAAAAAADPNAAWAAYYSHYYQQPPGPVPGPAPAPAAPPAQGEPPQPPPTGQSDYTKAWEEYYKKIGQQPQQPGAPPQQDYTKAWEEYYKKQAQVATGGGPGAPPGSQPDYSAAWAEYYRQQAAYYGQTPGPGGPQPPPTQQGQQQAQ
Nature of the assay: affinity purification with mass spectrometry; TAP purification (two steps of affinity chromatography) of TAP-KSRP from RNase A-treated extracts of stable HT1080 cells; bands 1 and 2 of a silver-stained gel analysed by mass spectrometry; control cells with the TAP tag only.

These are yes or no findings as the source states them, for the method shown. In cells and extracts the contact can be indirect. Here binding means that the protein was enriched with, or labelled near, the bait; the list need not be complete. Sequences can lack the tags named with a protein.

B1: DEAD box protein DDX1, endogenous (protein, UniProt Q92499 1-740)
chain: MAAFSEMGVMPEIAQAVEEMDWLLPTDIQAESIPLILGGGDVLMAAETGSGKTGAFSIPVIQIVYETLKDQQEGKKGKTTIKTGASVLNKWQMNPYDRGSAFAIGSDGLCCQSREVKEWHGCRATKGLMKGKHYYEVSCHDQGLCRVGWSTMQASLDLGTDKFGFGFGGTGKKSHNKQFDNYGEEFTMHDTIGCYLDIDKGHVKFSKNGKDLGLAFEIPPHMKNQALFPACVLKNAELKFNFGEEEFKFPPKDGFVALSKAPDGYIVKSQHSGNAQVTQTKFLPNAPKALIVEPSRELAEQTLNNIKQFKKYIDNPKLRELLIIGGVAARDQLSVLENGVDIVVGTPGRLDDLVSTGKLNLSQVRFLVLDEADGLLSQGYSDFINRMHNQIPQVTSDGKRLQVIVCSATLHSFDVKKLSEKIMHFPTWVDLKGEDSVPDTVHHVVVPVNPKTDRLWERLGKSHIRTDDVHAKDNTRPGANSPEMWSEAIKILKGEYAVRAIKEHKMDQAIIFCRTKIDCDNLEQYFIQQGGGPDKKGHQFSCVCLHGDRKPHERKQNLERFKKGDVRFLICTDVAARGIDIHGVPYVINVTLPDEKQNYVHRIGRVGRAERMGLAISLVATEKEKVWYHVCSSRGKGCYNTRLKEDGGCTIWYNEMQLLSEIEEHLNCTISQVEPDIKVPVDEFDGKVTYGQKRAAGGGSYKGHVDILAPTVQELAALEKEAQTSFLHLGYLPNQLFRTF
Turning to B1, the binding result is “binds”.

B2: hnRNP M (protein, UniProt P52272 1-730)
chain: MAAGVEAAAEVAATEIKMEEESGAPGVPSGNGAPGPKGEGERPAQNEKRKEKNIKRGGNRFEPYANPTKRYRAFITNIPFDVKWQSLKDLVKEKVGEVTYVELLMDAEGKSRGCAVVEFKMEESMKKAAEVLNKHSLSGRPLKVKEDPDGEHARRAMQKVMATTGGMGMGPGGPGMITIPPSILNNPNIPNEIIHALQAGRLGSTVFVANLDYKVGWKKLKEVFSMAGVVVRADILEDKDGKSRGIGTVTFEQSIEAVQAISMFNGQLLFDRPMHVKMDERALPKGDFFPPERPQQLPHGLGGIGMGLGPGGQPIDANHLNKGIGMGNIGPAGMGMEGIGFGINKMGGMEGPFGGGMENMGRFGSGMNMGRINEILSNALKRGEIIAKQGGGGGGGSVPGIERMGPGIDRLGGAGMERMGAGLGHGMDRVGSEIERMGLVMDRMGSVERMGSGIERMGPLGLDHMASSIERMGQTMERIGSGVERMGAGMGFGLERMAAPIDRVGQTIERMGSGVERMGPAIERMGLSMERMVPAGMGAGLERMGPVMDRMATGLERMGANNLERMGLERMGANSLERMGLERMGANSLERMGPAMGPALGAGIERMGLAMGGGGGASFDRAIEMERGNFGGSFAGSFGGAGGHAPGVARKACQIFVRNLPFDFTWKMLKDKFNECGHVLYADIKMENGKSKGCGVVKFESPEVAERACRMMNGMKLSGREIDVRIDRNA
As for B2, the binding result is listed as “binds”.

B3: DNA replication licensing factor MCM5 (protein, UniProt P33992 1-734)
chain: MSGFDDPGIFYSDSFGGDAQADEGQARKSQLQRRFKEFLRQYRVGTDRTGFTFKYRDELKRHYNLGEYWIEVEMEDLASFDEDLADYLYKQPAEHLQLLEEAAKEVADEVTRPRPSGEEVLQDIQVMLKSDASPSSIRSLKSDMMSHLVKIPGIIIAASAVRAKATRISIQCRSCRNTLTNIAMRPGLEGYALPRKCNTDQAGRPKCPLDPYFIMPDKCKCVDFQTLKLQELPDAVPHGEMPRHMQLYCDRYLCDKVVPGNRVTIMGIYSIKKFGLTTSRGRDRVGVGIRSSYIRVLGIQVDTDGSGRSFAGAVSPQEEEEFRRLAALPNVYEVISKSIAPSIFGGTDMKKAIACLLFGGSRKRLPDGLTRRGDINLLMLGDPGTAKSQLLKFVEKCSPIGVYTSGKGSSAAGLTASVMRDPSSRNFIMEGGAMVLADGGVVCIDEFDKMREDDRVAIHEAMEQQTISIAKAGITTTLNSRCSVLAAANSVFGRWDETKGEDNIDFMPTILSRFDMIFIVKDEHNEERDVMLAKHVITLHVSALTQTQAVEGEIDLAKLKKFIAYCRVKCGPRLSAEAAEKLKNRYIIMRSGARQHERDSDRRSSIPITVRQLEAIVRIAEALSKMKLQPFATEADVEEALRLFQVSTLDAALSGTLSGVEGFTSQEDQEMLSRIEKQLKRRFAIGSQVSEHSIIKDFTKQKYPEHAIHKVLQLMLRRGEIQHRMQRKVLYRLK
Consider B3, for which the binding entry is listed as “binds”.
